Test results from PubChem BioAssay AID624246 (National Center for Advancing Translational Sciences (NCATS), 2012).
Out of some 370,000 compounds screened, about 100 (0.027%) were called active. Inconclusive means that the source gave no clear call. Such entries were picked first, then a sample of the others. Calls follow the shape of the dose curve; as a rule, active = well fitted inhibition curve with a large enough effect in the polarisation, with a control signal flat; inconclusive = small, poorly fitted or top-dose-only effect, or effect the other way, or a change in a side signal; inactive = no such curve, though single readings can be large or run the other way; the % refers to the polarisation. Potencies of inconclusive entries are doubtful fits and often do not repeat. A note “side channel” means that the fit belongs to a control or component signal, not to the main read-out.

Protein sequences, listed by entry. Tags and fused reporters are not part of them.
UniProt P11308, whole entry, looked up: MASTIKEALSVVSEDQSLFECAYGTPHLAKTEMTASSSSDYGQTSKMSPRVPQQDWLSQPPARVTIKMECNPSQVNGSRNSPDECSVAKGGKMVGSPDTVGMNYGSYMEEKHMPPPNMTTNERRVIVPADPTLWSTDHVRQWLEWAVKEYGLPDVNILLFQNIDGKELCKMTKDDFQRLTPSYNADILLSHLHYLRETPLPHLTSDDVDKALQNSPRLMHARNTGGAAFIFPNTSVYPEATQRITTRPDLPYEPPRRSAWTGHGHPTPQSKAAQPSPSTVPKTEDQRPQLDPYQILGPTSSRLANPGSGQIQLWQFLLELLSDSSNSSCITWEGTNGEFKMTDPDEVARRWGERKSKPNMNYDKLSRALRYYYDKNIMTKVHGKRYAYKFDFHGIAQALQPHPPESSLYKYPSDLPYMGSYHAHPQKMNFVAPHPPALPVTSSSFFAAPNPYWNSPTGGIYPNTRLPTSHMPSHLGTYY

target: Transcriptional regulator ERG (Homo sapiens) (UniProt P11308); assay: qHTS for Small Molecule Inhibitors of the ERG Ets/DNA interaction; conditions: fluorescence polarization, His-ERG Ets domain / labelled DNA; FP activity, negative = inhibition: at 76.9 µM (top of the series); as to FP activity, negative = inhibition: % of control where 0% means no effect
In short: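 His-tagged ERG Ets domain (1 uM in the protein solution; 300mM KCl, 50mM Tris-HCl, 1mM EDTA, 1mM DTT, pH 7.5) received compound, then a probe mix of 5 nM fluorescein-DNA and 100nM Texas-615-DNA. Fluorescence polarization was read for both dyes.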
Potency is read from the fitted curve at half-maximal effect.

SMILES	FP activity, negative = inhibition	Potency
Oc1ccc(C[C@H]2CNC(=S)N2CC2CCCN2C[C@H](Cc2ccc(O)cc2)N2C[C@H](Cc3ccccc3)N(CC3CCCCC3)C2=S)cc1 (stereo partly drawn)	inactive: 12.5%	–
O=C(Nc1ccc2c(c1)OCCO2)c1cnc2n(c1=O)CCS2	inactive: 2.01%	–
Nc1nc(=S)c2[nH]cnc2[nH]1	–	inconclusive: 39.8 µM [inhibitor, single point]
CC(=O)Nc1ccc(NC(=O)Nc2ccc(C)cc2C)cc1	–	inconclusive: 7.94 µM [inhibitor, single point]
COc1ccc(Oc2nnc(-c3ccccc3)cc2C#N)cc1	–	inconclusive: 35.5 µM [quencher, side channel, single point]
Cc1[nH]n(-c2ccccc2)c(=O)c1C=Nc1ccc(S(=O)(=O)NC(N)=O)cc1	–	inconclusive: 50.1 µM [inhibitor, single point]
CN1/C(=C\C(=O)c2ccco2)C(C)(C)c2ccccc21	–	inconclusive: 39.8 µM [fluorescent, side channel, partial curve, poor fit]
Cc1oc(C)c2c(=O)ccc3c(c12)OC(N)=C(C#N)C3c1ccccc1 (stereo not drawn)	–	inconclusive: 50.1 µM [fluorescent, single point]
O=C(COc1cccc(Cl)c1)NNC(=S)Nc1ccccc1	inactive: -5.19%	–
COc1cccc(C(=O)NCc2ccc3c(c2)cc(C)n3C)c1	–	inconclusive: 15.8 µM [inhibitor, partial curve, poor fit]
Cc1cc(/C=C2\SC(=O)N(C)C2=O)c(C)n1-c1ccc(O)cc1	inactive: -6.85%	–
COc1cc(C=O)ccc1OCCCOc1ccccc1[N+](=O)[O-]	inactive: -4.15%	–
CCOc1ncccc1C(=O)Nc1cccc(-c2nc3cccnc3s2)c1	–	inconclusive: 3.16 µM [inhibitor, single point]
COCCCN1C(=O)C(=O)/C(=C(/O)c2ccc(C)cc2)C1c1ccccc1 (stereo not drawn)	inactive: -4.53%	–
CCCCOc1ccc(CNC(=O)Cn2ncn3c(cc4cc(F)ccc43)c2=O)cc1	–	inconclusive: 11.2 µM [fluorescent, side channel, single point]
O=C(CCC1CCCN(C(=O)c2ccsc2)C1)NCc1ccc(F)c(F)c1 (stereo not drawn)	–	inconclusive: 0.794 µM [inhibitor, full curve, poor fit]
Cc1noc(/C=C/c2ccco2)c1S(=O)(=O)N1CCC(C(=O)Nc2ccc(F)cc2F)CC1	–	inconclusive: 50.1 µM [quencher, single point]
Cc1cc(=O)n2nc(-c3ccccc3)sc2c1C#N	–	inconclusive: 7.94 µM [quencher, side channel, partial curve, poor fit]
CCOc1ccccc1-c1c2cc(O)c(=O)cc-2oc2cc(O)c(O)cc12	–	inconclusive: 7.94 µM [inhibitor, full curve, poor fit]
O=C(Nc1ccncc1)c1cncc(Br)c1	inactive: -2.85%	–
CC(=O)Nc1ccc(S(=O)(=O)NCC(=O)OCC(=O)NCc2ccco2)cc1	–	inconclusive: 7.08 µM [inhibitor, single point]
Cc1ccc2nc(NC(=O)CSCC(=O)OCC(=O)c3ccc(Br)cc3)sc2c1	inactive: 7.36%	–
Cc1cc(-c2ccc(C)c(S(=O)(=O)N3CCN(c4cccc(C(F)(F)F)c4)CC3)c2)on1	inactive: -7.66%	–

Exported with each value named: four of the compounds above.
COc1ccc(Oc2nnc(-c3ccccc3)cc2C#N)cc1
  Potency: inconclusive: 35.5 µM [quencher, side channel, single point]
Cc1[nH]n(-c2ccccc2)c(=O)c1C=Nc1ccc(S(=O)(=O)NC(N)=O)cc1
  Potency: inconclusive: 50.1 µM [inhibitor, single point]
CN1/C(=C\C(=O)c2ccco2)C(C)(C)c2ccccc21
  Potency: inconclusive: 39.8 µM [fluorescent, side channel, partial curve, poor fit]
Cc1oc(C)c2c(=O)ccc3c(c12)OC(N)=C(C#N)C3c1ccccc1 (stereo not drawn)
  Potency: inconclusive: 50.1 µM [fluorescent, single point]

Remaining list, next part.

SMILES	FP activity, negative = inhibition	Potency
Cc1ccc(NC(=O)c2cncc(Br)c2)c([N+](=O)[O-])c1	–	inconclusive: 5.62 µM [quencher, side channel, partial curve, poor fit]
CCc1ccc(C(=O)c2cn(CC(=O)Nc3cc(C)ccc3C)c3nc(C)ccc3c2=O)cc1	inactive: 2.26%	–
CC1CC(OC(=O)C(O)c2ccccc2)CC(C)(C)N1C (stereo not drawn)	–	inconclusive: 6.31 µM [inhibitor, partial curve, poor fit]
CCN(CC)c1ncc(C#N)c(N)n1	inactive: 1.13%	–
CNC(=S)N/N=C/c1ccc(-c2ccc(Cl)c([N+](=O)[O-])c2)o1	inactive: 5.16%	–
O=[N+]([O-])c1ccc(OCCO)nc1	–	inconclusive: 11.2 µM [quencher, side channel, partial curve, poor fit]
COc1ccccc1S(=O)(=O)N1CCN(S(=O)(=O)c2ccccc2C#N)CC1	–	inconclusive: 11.2 µM [inhibitor, single point]
O=C(O)c1ccc(N2CCN(Cc3ccc4c(c3)OCO4)CC2)c([N+](=O)[O-])c1	inactive: -5.76%	–
CC(=O)NNc1cc(N2CCOCC2)nc(N2CCOCC2)n1	–	inconclusive: 35.5 µM [inhibitor, single point]
CC(C)CNC(=O)CCc1nc(-c2ccccc2)no1	–	inconclusive: 12.6 µM [inhibitor, partial curve, poor fit]
CC(C)=NOCC(=O)Nn1c(COc2ccccc2)nc2ccccc2c1=O	–	inconclusive: 31.6 µM [inhibitor, single point]
CCC(=O)Nc1cccc(C(=O)OCc2cccc([N+](=O)[O-])c2)c1	–	active: 7.08 µM
CC1CC(C)CN(CCCNS(=O)(=O)c2cc(Br)cc3c2N(C(=O)C2CC2)CC3)C1 (stereo not drawn)	–	inconclusive: 11.2 µM [inhibitor, single point]
CC(=O)Nc1cc2c(cc1C(=O)c1ccccc1)OCCO2	inactive: -9.12%	–
COc1ccc(-n2ncc3c(NC(C)C)ncnc32)cc1	inactive: 3.81%	–
CC(C)n1cc(/C=N/NC(=O)COc2cccc3cccnc23)c2ccccc21	–	inconclusive: 0.794 µM [inhibitor, full curve, poor fit]
Cc1nc2nc(NCc3ccccc3Cl)[nH]n2c(=O)c1Cc1ccccc1	–	inconclusive: 31.6 µM [quencher, side channel, partial curve, poor fit]
Nc1ccn(CC(=O)NCCCc2ccccc2)c(=O)n1	inactive: -14.6%	–
C=COCCNC(=S)Nc1ccccc1	–	inconclusive: 39.8 µM [inhibitor, partial curve, poor fit]
COc1ccc(/C=C/CN2CCCC(C(=O)c3cc(F)ccc3F)C2)cc1 (stereo not drawn)	–	inconclusive: 50.1 µM [quencher, side channel, single point]
CCc1ccc2oc(-c3cc(NC(=O)c4cccs4)ccc3Cl)nc2c1	–	inconclusive: 2 µM [fluorescent, side channel, partial curve, poor fit]
COc1ccc(/C=N/n2c(C)nc3sc(C)c(C)c3c2=O)cc1	–	inconclusive: 10 µM [quencher, side channel, partial curve, poor fit]
O=C(Nc1nc2ccccc2[nH]1)c1cccc(F)c1	inactive: 24.8%	–

SMILES	FP activity, negative = inhibition	Potency
Cc1ccc(-n2c(N)c(C(=O)N3CCN(C)CC3)sc2=S)cc1	inactive: -7.01%	–
CC1CCC2(CC1)NC(=O)N(CC(=O)Nc1ccccc1-c1ccccc1)C2=O (stereo not drawn)	inactive: 5.71%	–
Cc1cc2cc(CN3C(=O)c4ccccc4C3=O)ccc2n1C	–	inconclusive: 35.5 µM [inhibitor, partial curve, poor fit]
O=C(Nc1ccccc1)c1sccc1Oc1ccc([N+](=O)[O-])cc1F	–	inconclusive: 28.2 µM [inhibitor, single point]
CCN(CC)S(=O)(=O)c1ccc(/C=C/C(=O)Nc2ccc(F)c(F)c2F)cc1	inactive: 7.01%	–
O=C(NC(=S)Nc1ccc(-c2ccc(CO)o2)cc1)c1cccs1	inactive: 6.37%	–
COC(=O)C(CCSC)NC(=O)c1cc2c(n(-c3ccccc3)c1=O)CC(C)(C)CC2=O (stereo not drawn)	–	inconclusive: 158 µM [inhibitor, single point]
O=C1CC(=O)N(Cc2ccco2)C(=S)N1	–	inconclusive: 31.6 µM [fluorescent, side channel, single point]
Cc1csc2nc(-c3cccc(NC(=O)c4c(F)cccc4F)c3)cn12	inactive: 5.98%	–
O=C(NN1CCOCC1)c1cc(Cl)ccc1Cl	inactive: -3.37%	–
Cc1c(-c2nc(-c3ccc4c(c3)OCO4)no2)nnn1-c1cccc(C(F)(F)F)c1	inactive: -8.31%	–
O=C1c2ccc3c4c(ccc(c24)C(=O)N1CCCCO)C(=O)N(CCCCO)C3=O	–	inconclusive: 14.1 µM [inhibitor, partial curve]
COc1cccc(NC(=O)NNC(=O)c2ccc3c(c2)NC(=O)C(C)(C)O3)c1	–	inconclusive: 11.2 µM [inhibitor, single point]
COc1cc(/C=N/NC(=O)c2cc(-c3ccc4c(c3)OCO4)n[nH]2)ccc1O	–	inconclusive: 22.4 µM [quencher, side channel, partial curve, poor fit]
COCC(=O)NCc1ccc2c(c1)cc(C)n2C	–	inconclusive: 79.4 µM [inhibitor, single point]
Cc1cc(C)c(/C=C2\C(=O)Nc3ccccc32)[nH]1	–	inconclusive: 10 µM [inhibitor, partial curve]
CC1(C)CC(=O)C2=C(C1)Nc1ccccc1NC2c1nc2ccccc2[nH]1 (stereo not drawn)	–	inconclusive: 31.6 µM [inhibitor, partial curve, poor fit]
COc1ccc(N2C(=O)[C@@H]3Cc4ccccc4CN3C2=O)cc1	–	inconclusive: 44.7 µM [quencher, side channel, single point]
O=C(NCCN1CCN(Cc2ccccc2Cl)CC1)Nc1ccccc1	–	inconclusive: 79.4 µM [inhibitor, single point]
Nc1ccc(C(=O)Nc2ccc3nc(-c4cccnc4)[nH]c3c2)cc1	–	inconclusive: 35.5 µM [quencher, side channel, partial curve, poor fit]
CCCN(CC1CC1)c1nc(N)c2c(N)nc(OC)cc2c1C#N	–	inconclusive: 35.5 µM [quencher, partial curve, poor fit]
CCCCNc1c(-c2ccc(-c3cccc(Cl)c3)cc2)nc2ccccn12	inactive: -10.3%	–
